We go through three substances from PMC8628632.

By UniProt entry, the sequences of proteins in these tests, tags left out. Where a name states a change or a piece, a line headed by the entry shows the natural chain unless it says otherwise.
UniProt P56696: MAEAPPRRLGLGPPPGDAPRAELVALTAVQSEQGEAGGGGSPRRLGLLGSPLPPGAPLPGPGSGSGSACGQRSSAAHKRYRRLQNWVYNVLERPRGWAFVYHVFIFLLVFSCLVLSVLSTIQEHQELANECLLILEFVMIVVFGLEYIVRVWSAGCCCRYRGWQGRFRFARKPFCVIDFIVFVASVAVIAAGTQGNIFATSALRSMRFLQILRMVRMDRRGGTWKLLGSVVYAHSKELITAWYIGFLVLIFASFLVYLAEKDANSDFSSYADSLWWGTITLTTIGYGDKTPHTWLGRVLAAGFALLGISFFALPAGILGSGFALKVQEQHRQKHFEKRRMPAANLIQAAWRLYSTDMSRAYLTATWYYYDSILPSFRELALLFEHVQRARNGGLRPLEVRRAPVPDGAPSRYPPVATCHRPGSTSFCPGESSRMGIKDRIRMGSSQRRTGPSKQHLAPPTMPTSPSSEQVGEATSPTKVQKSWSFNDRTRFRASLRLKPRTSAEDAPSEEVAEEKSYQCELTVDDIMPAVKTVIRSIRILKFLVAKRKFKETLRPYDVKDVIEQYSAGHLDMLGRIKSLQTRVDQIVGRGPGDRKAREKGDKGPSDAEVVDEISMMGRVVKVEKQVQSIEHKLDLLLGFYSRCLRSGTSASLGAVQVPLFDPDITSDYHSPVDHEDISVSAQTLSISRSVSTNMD

Results are given in words; binding and its absence hold for the method and conditions named. In cells and extracts the contact can be indirect. Some entries that bind do so weakly or less than the wild type.

This experiment addresses RFP-tagged Kv7.4^WT (human Kv7.4, encoded by KCNQ4) (human) (UniProt P56696). The experiment is described as follows: co-IP; RFP-Kv7.4^WT captured on anti-RFP beads (RFP-selector) from lysates of HEK293T cells co-expressing a GFP-tagged Kv7.4 construct; lysis in 150 mM NaCl, 20 mM DDM, 1 mM EDTA, 1 mM DTT, 20 mM HEPES pH 7.5; 30 min at 4°C; washed with 2 mM DDM buffer; binding read as green fluorescence of the beads by microscopy; flow-through checked with GFP-selector.
Consider “GFP-tagged Kv7.4^P291L (from UniProt P56696 1-695)”, for which the binding entry is given as “binds”.

As to “GFP-tagged Kv7.4^G285S (from UniProt P56696 1-695)”, the binding result was “binds”. Then “RFP-tagged Kv7.4^WT (human Kv7.4, encoded by KCNQ4) (from UniProt P56696 1-695)”, with “binds”.
